Measurements reported in publication doi:10.1101/2022.04.11.487922.
No constants are given. Whether binding was seen depends on the method and setting. Some results given as binding are weak or reduced against the parent protein; the word gives no strength.

Assays:
Test in all cases: SEC
[1] = target: N-terminal hexahistidine murine p50(39-350) (murine) (UniProt P25799)
[2] = target: RelATAD (RelA residues 340-549) (murine) (UniProt Q04207)
[3] = target: T1, p50_(39-350)/RelA_(19-549) heterodimer (murine), P25799; conditions: remark: other sources report otherwise
T1 chain 1: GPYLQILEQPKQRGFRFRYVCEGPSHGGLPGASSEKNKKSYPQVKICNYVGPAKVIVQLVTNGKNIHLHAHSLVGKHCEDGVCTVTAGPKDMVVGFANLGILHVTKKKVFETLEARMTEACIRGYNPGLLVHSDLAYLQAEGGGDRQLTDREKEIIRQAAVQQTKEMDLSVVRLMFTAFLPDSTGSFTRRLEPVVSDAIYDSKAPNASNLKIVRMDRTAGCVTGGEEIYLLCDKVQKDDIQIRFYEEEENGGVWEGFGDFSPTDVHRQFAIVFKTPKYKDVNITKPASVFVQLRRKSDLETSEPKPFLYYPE
T1 chain 2: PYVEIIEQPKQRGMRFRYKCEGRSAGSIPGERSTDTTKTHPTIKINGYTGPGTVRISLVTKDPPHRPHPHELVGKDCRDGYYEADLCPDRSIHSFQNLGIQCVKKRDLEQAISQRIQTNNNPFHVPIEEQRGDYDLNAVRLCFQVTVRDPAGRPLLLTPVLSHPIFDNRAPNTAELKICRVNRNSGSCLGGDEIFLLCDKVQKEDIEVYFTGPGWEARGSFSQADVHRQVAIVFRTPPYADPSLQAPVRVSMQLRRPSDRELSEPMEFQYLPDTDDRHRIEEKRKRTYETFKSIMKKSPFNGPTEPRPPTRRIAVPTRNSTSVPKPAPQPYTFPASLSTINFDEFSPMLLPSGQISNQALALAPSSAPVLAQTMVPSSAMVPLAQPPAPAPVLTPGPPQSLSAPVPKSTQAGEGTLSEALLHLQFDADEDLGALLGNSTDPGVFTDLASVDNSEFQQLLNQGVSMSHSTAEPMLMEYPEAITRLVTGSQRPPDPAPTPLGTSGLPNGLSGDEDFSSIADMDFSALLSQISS

[4] = target: T2, p50_(39-350)/RelA_(19-321) heterodimer (murine), P25799; conditions: remark: other sources report otherwise
T2 chain 1: T1 chain 1
T2 chain 2: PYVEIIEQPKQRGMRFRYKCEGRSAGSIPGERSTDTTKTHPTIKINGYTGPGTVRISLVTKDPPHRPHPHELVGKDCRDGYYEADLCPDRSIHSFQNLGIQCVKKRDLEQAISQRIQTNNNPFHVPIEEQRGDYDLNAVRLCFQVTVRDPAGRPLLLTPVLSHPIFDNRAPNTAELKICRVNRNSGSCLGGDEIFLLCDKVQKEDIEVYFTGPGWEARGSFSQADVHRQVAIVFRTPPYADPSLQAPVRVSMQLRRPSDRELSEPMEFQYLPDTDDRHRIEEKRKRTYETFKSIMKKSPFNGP

Molecule: murine RelA residues 19-321 (from UniProt Q04207 19-321) (domain or fragment)
- binding [1]: binds

Molecule: murine RelA residues 19-549 (from UniProt Q04207 19-549)
- binding [1]: binds

B1: RelATAD (RelA residues 340-549) (domain or fragment, UniProt Q04207 340-549)
chain: SVPKPAPQPYTFPASLSTINFDEFSPMLLPSGQISNQALALAPSSAPVLAQTMVPSSAMVPLAQPPAPAPVLTPGPPQSLSAPVPKSTQAGEGTLSEALLHLQFDADEDLGALLGNSTDPGVFTDLASVDNSEFQQLLNQGVSMSHSTAEPMLMEYPEAITRLVTGSQRPPDPAPTPLGTSGLPNGLSGDEDFSSIADMDFSALLSQISS
- binding [2]: no binding (tested: 20 µM)

B2: p50_(39-350)/RelA_(19-549) heterodimer, P25799 39-350; Q04207 19-549 (complex)
chain 1: T1 chain 1
chain 2: T1 chain 2
- binding [3]: no binding (tested: 10 µM)

B3: p50_(39-350)/RelA_(19-321) heterodimer, P25799 39-350; Q04207 19-321 (complex)
chain 1: T1 chain 1
chain 2: T2 chain 2
- binding [4]: no binding (tested: 10 µM)
